{"source": "the supplement of paper PMC7024190", "note": "Counter-ions that a name gives are not always drawn. The list shows a part of the results. This data set is noisy: repeats of one test often differ as much as different tests do.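 A first-round screen of about ten thousand compounds sought those raising reporter output, using human embryonic kidney cells briefly transfected with a plasmid carrying a Renilla luciferase gene driven by the HSV-TK promoter.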"}
{"system": "HEK 293FT", "test": "log relative Renilla luciferase luminescence (reporter expression vs reference, reference not stated) (log (base not stated)); higher = higher recombinant reporter expression", "conditions": "10 µM; time after transfection 48 h"}
{"smiles": "CN(C)CCCSC(=N)N", "note": "[Dimaprit dihydrochloride]", "log": -0.0359}
{"smiles": "O=C(NCCN1CCOCC1)c1ccc(Cl)cc1", "note": "[Moclobemide]", "log": 0.0725}
{"smiles": "CN(C/C=C/c1ccccc1)Cc1cccc2ccccc12", "note": "[Naftifine hydrochloride]", "log": 0.0079}
{"smiles": "CN1C(=O)OC(C)(C)C1=O", "note": "[Trimethadione]", "log": 0.0179}
{"smiles": "CC(=O)CCCCn1c(=O)c2c(ncn2C)n(C)c1=O", "note": "[Pentoxifylline]", "log": 0.136}
{"smiles": "OCCN1CCN(CCCN2c3ccccc3C=Cc3ccccc32)CC1", "note": "[Opipramol dihydrochloride]", "log": 0.165}
{"smiles": "CC(C)NC[C@H](O)COc1cccc2ccccc12", "note": "[(S)-propranolol hydrochloride]", "log": 0.102}
{"smiles": "CCCCNc1cc(C(=O)O)cc(S(N)(=O)=O)c1Oc1ccccc1", "note": "[Bumetanide]", "log": 0.157}
{"smiles": "CNC(=O)c1c(I)c(C(=O)NCC(=O)Nc2c(I)c(C(=O)O)c(I)c(C(=O)NCCO)c2I)c(I)c(N(C)C(C)=O)c1I", "note": "[Ioxaglic acid]", "log": 0.105}
{"smiles": "CC(=O)Oc1ccccc1C(=O)Oc1ccccc1C(=O)O", "note": "[Acetylsalicylsalicylic acid]", "log": -0.0311}
{"smiles": "CC(C)n1c(/C=C/C(O)CC(O)CC(=O)O)c(-c2ccc(F)cc2)c2ccccc21", "note": "(stereo not drawn) [Fluvastatin sodium salt]", "log": -0.0369}
{"smiles": "N=C(N)NCc1cccc(I)c1", "note": "[Iobenguane sulfate]", "log": 0.0878}
{"smiles": "C[C@H]1NC(=O)NC1=O", "note": "[Methylhydantoin-5-(D)]", "log": -0.0488}
{"smiles": "Cc1ccnc(NS(=O)(=O)c2ccc(N)cc2)n1", "note": "[Sulfamerazine]", "log": 0.205}
{"smiles": "NCCCC(O)(P(=O)(O)O)P(=O)(O)O", "note": "[Alendronate sodium]", "log": -0.108}
{"smiles": "Nc1ccc(S(=O)(=O)Nc2cnc3ccccc3n2)cc1", "note": "[Sulfaquinoxaline sodium salt]", "log": -0.102}
{"smiles": "CNC[C@H](O)[C@@H](O)[C@H](O)[C@H](O)CO", "note": "[Meglumine]", "log": 0.0842}
{"smiles": "CN(C)CCn1nnnc1SCC1=C(C(=O)O)N2C(=O)[C@@H](NC(=O)Cc3csc(N)n3)[C@H]2SC1", "note": "[Cefotiam hydrochloride]", "log": -0.00821}
{"smiles": "CC(=O)N[C@@H](CS)C(=O)O", "note": "[Acetylcysteine]", "log": -0.318}
{"smiles": "CC(=O)O[C@H]1C[C@@]2(C)[C@@H](C[C@@H](O)[C@H]3[C@@]4(C)CC[C@@H](O)[C@@H](C)[C@@H]4CC[C@@]32C)/C1=C(\\CCC=C(C)C)C(=O)O", "note": "[Fusidic acid sodium salt]", "log": -0.0661}
{"smiles": "CCN(CC)CCOC(=O)c1ccc(N)cc1", "note": "[Procaine hydrochloride]", "log": 0.0484}
{"smiles": "Cc1c(C)c2c(c(C)c1O)CCC(C)(C(=O)O)O2", "note": "(stereo not drawn) [Trolox]", "log": 0.0324}
{"smiles": "CC[C@H](C)C(=O)O[C@H]1C[C@@H](C)C=C2C=C[C@H](C)[C@H](CC[C@@H]3C[C@@H](O)CC(=O)O3)[C@H]21", "note": "[Lovastatin]", "log": -0.156}
{"smiles": "CC(C)OC(=O)C(C)(C)Oc1ccc(C(=O)c2ccc(Cl)cc2)cc1", "note": "[Fenofibrate]", "log": 0.0424}
{"smiles": "Cc1c(O)c(=O)n(-c2ccccc2)n1C", "note": "[Antipyrine, 4-hydroxy]", "log": -0.00375}
{"smiles": "Cc1cc2c(s1)Nc1ccccc1N=C2N1CCN(C)CC1", "note": "[Olanzapine]", "log": -0.193}
{"smiles": "CC(N)CCCC(C)(C)O", "note": "(stereo not drawn) [Heptaminol hydrochloride]", "log": 0.0404}
{"smiles": "CN1CCCN=C1/C=C/c1cccc(O)c1", "note": "[Oxantel pamoate]", "log": 0.105}
{"smiles": "O=C(O)c1cc(/N=N/c2ccc(S(=O)(=O)Nc3ccccn3)cc2)ccc1O", "note": "[Sulfasalazine]", "log": -0.275}
{"smiles": "CN/C(=N\\CCSCc1nc[nH]c1C)NC#N", "note": "[Cimetidine]", "log": 0.0638}
{"smiles": "CCc1cccc(CC)c1NC(=O)CN(CC(=O)O)CC(=O)O", "note": "[Etifenin]", "log": 0.0404}
{"smiles": "CCCCc1ccc2[nH]c(NC(=O)OC)nc2c1", "note": "[Parbendazole]", "log": 0.0739}
{"smiles": "Nc1ncnc2c1ncn2C1OC(COP(=O)(O)O)C(O)C1O", "note": "(stereo not drawn) [Adenosine 5'-monophosphate monohydrate]", "log": 0.11}
{"smiles": "CN1CCCN(C(c2ccccc2)c2ccc(Cl)cc2)CC1", "note": "(stereo not drawn) [Homochlorcyclizine dihydrochloride]", "log": 0.0787}
{"smiles": "C[C@@H]1C[C@H]2[C@@H]3CCC4=CC(=O)C=C[C@]4(C)[C@@]3(Cl)[C@@H](O)C[C@]2(C)[C@@]1(OC(=O)c1ccco1)C(=O)CCl", "note": "[Mometasone furoate]", "log": -0.0206}
{"smiles": "CC1(C)S[C@@H]2[C@H](NC(=O)[C@H](N)c3ccccc3)C(=O)N2[C@H]1C(=O)O", "note": "[Ampicillin trihydrate]", "log": 0.0903}
{"smiles": "O=c1n(CCCN2CCN(c3cccc(Cl)c3)CC2)nc2ccccn12", "note": "[Trazodone hydrochloride]", "log": -0.271}
{"smiles": "COc1ccc2cc([C@H](C)C(=O)O)ccc2c1", "note": "[Naproxen]", "log": 0.0949}
